Literature values in patent US12239707B2, “Photodynamic compositions and methods of use” (MT RESEARCH, LLC, priority 2018, dated 2025).
Where two headings read alike, the source gives them in different places. At least one compound was matched to its structure with a doubt left.

Details: multiple PDT treatments, Phase I

CCCCCCOC(=O)CCC(=O)CN [HAL, hexaminolevulinate]
efficacy (at 9 months): 23.5% | efficacy (at 21 months): 12%
